These results are taken from article PMC7297381, “Potent, specific MEPicides for treatment of zoonotic staphylococci” (PLoS Pathogens, 2020).

For the data set, the system named is S. schleiferi wild-type and glpT mutant isolates. Put plainly: Quantification of intracellular FSM by LC-MS.

On to `O=CN(O)CCCP(=O)(O)O` [FSM, fosmidomycin], for which the “intracellular accumulation of FSM” value is, setting by setting: (four FSM-resistant glpT mutant S. schleiferi strains (3408, 4494, 7376, 8400)) “do not”; (wild-type S. schleiferi, FSM at 10x WT IC50) “readily accumulates”.
